Source: PubChem BioAssay AID1347423 (Functional Genomics Laboratory (NCATS/FGL), 2020)
The whole screen tested about 52,000 sequences, of which about 210 (0.4%) were called active.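 How the source made its calls: active means gene whose silencing raises cell survival under the drug, median off-target-corrected z-score across its silencing RNAs 2 or more; inactive means the rest.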 The list shows a part of the results.

Assay: Resistance to Poly (ADP-Ribose) Polymerase inhibitor: Gene Identification via Genome-wide siRNA Screen
Details: mouse BRCA2 R2336H ES cells, olaparib, CellTiter-Glo viability; hits give high values
How it was run: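 Genome-wide siRNA screen (3 siRNAs/gene, 20 nM) in mouse ES cells carrying hypomorphic BRCA2 R2336H; olaparib 500 nM added 48 h post-transfection, CellTiter-Glo viability 72 h later. Normalized to plate-median negative control; MAD z-scores, gene median, seed-adjusted.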

Sequence	z-score
GGAGAAAAACUGAGCAGCCTT against Chst12	inactive: 0.672
GGUGUCUGCGUGAAGAUCATT against Cacng8	inactive: 0.491
GGGCAUGUUUGCCACCAGUTT against Gpam	inactive: -0.294
GGACCACUGACAUUUUUCATT against Tagln3	inactive: 0.352
GGCCAUUCCAGCUCUGAAATT against Isl2	inactive: -0.777
GGAUUUACCACCAAUUAAATT against Vars2	inactive: -1.59
GGCACAGCUGGAUGAAGAATT against Gucy1b3	inactive: 0.919
CCUCGUUAUCCUCAUGGGATT against Akp5	inactive: 0.496
GCUCUUAUCAGCAUGUAUATT against Birc6	inactive: -0.773
GGAAUCAAAGAUGGAGAGGTT against Galnt3	inactive: 0.474
GGCCAUGAGGAAAACAAGATT against 0610011B16Rik	inactive: -0.121
GGAGAAUUUGACUUUAAUGTT against Eif4enif1	inactive: -0.293
CCCAAGCUCGGCUAUCGUATT against 4432406C08Rik	inactive: 0.312
GGACAACCACUUUAAGCUUTT against 2610024N01Rik	inactive: 0.185
GCUCUGCUAGUCAACUGCATT against Nrip2	inactive: 0.681
CCAAGGUUUGUCAUCUAAGTT against Limk2	inactive: -0.507
AGGAGCUUUGCUUAGCACUTT against MGC67311	inactive: -0.484
GGAAAUCAGCUCAUAAAGUTT against Tcf19	inactive: -0.0299
GGAGGAUACAGUGGAGGGATT against Fbxl19	inactive: 0.883
GGAAGUAGGCAGCAUCAUCTT against Pcbp1	inactive: -0.718
GCCUGUUACGUCAUCAAGATT against 1810036H07Rik	inactive: 0.96
GCUGGUCUAUGUGGAAAGGTT against Brap	inactive: -1.42
GCAGUUUGUAUUUGACCUATT against Txndc4	inactive: 0.902
AACCUUGCCGUUCUAGACATT against Olfr1423	inactive: 0.72
GCUAUGUGAAUUUGUAUGATT against 5330431N24Rik	inactive: 1.47
GCAGGUGGUACGCAGACUATT against Ulk1	inactive: -1.82

Sequence	z-score
CCCUCGAUCCUUUUCACCUTT against Gja4	inactive: 1.09
GGAUUCGGACUUCAUAAUCTT against Dpp10	inactive: 0.814
GGACAUCUUUUACCAGGAGTT against Mrps23	inactive: 0.182
GGUUCACCUGCAUCAUUGGTT against Smc1l2	inactive: -0.362
GGCAUUCAAAUCAAGAAGATT against 1700123O20Rik	inactive: -0.468
GGGAAUGUUGACUUGUGUUTT against 2700050P07Rik	inactive: -2.24
GGAGUUCUAUGUGUCACCATT against Dnajc5b	inactive: -0.358
GUGUUCAACUCCUGAGUAGTT against Olfr1275	inactive: 0.337
GGAGAAAUGCUUUUUGUUUTT against Scarb1	inactive: -1.45
GGUACCAUCACAGUGCGUCTT against D830007E07Rik	inactive: 0.0616
GCCCUUACAGUUACCCUUGTT against BC008184	inactive: -1.07
GGGAAACGCAAAGCCUUUUTT against Olfr17	inactive: -0.217
CCAAAACUAGGAAGAAACATT against Olfr716	inactive: -0.952
CCUUACUCGAUUAAAAGAATT against Eif3s6	inactive: 1.11
GGAGUUCACCACUAUCAAGTT against 2610039E05Rik	inactive: 0.685
GGAGAUCAAAAAAAGAAAGTT against Cfl2	inactive: 1.29
GGCCCUGAAGAAAGUUAUUTT against Olfr830	inactive: 1.17
GGACAGCUUCCGAAACUAUTT against Aldrl6	inactive: -0.0449
GGCUCUCUUAGUUGUAUCATT against Mrpl35	inactive: -1.03
CCUUUACGAACCUUCUGUCTT against Als2cr4	inactive: 0.541
CGUGGUUUCAGAUUUACAATT against Magi1	inactive: -1.53
GGACAGUGACUACAAUCCATT against Znf335	inactive: 0.338
CCCAGAUCUAGACUCCGACTT against Maf1	inactive: 2.13
GGGAACUUUAGCUUAAAUUTT against E130115E03Rik	inactive: -0.963
GGAAAAGCAAGUCAAUCAATT against Polk	inactive: 0.522
GGCCAAGAAUUCUCUGGUCTT against Six5	inactive: 0.371

Sequence	z-score
GGAUUUGAGUUACACUCAGTT against C230008H04Rik	inactive: -0.284
GGGUGACACUCUGAACGUATT against Centd2	inactive: 0.283
CCCAUCCAAUGCUUAUGUGTT against Sgne1	inactive: 0.211
GGAUUUCUUCUUAUGAUGATT against 9130227C08Rik	inactive: 1.24
CAGUCUACCAGAUCCUUCCTT against H2-Q8	inactive: -1.4
CCUAGAUUCUCCAAACUAATT against D630029K05Rik	inactive: 0.573
GGAGGCUUUUGUAAAAUCUTT against 1700020C08Rik	inactive: -0.303
CGUACUUCAGCGAUUUAAATT against Sec5l1	inactive: -0.869
GGUACUUUCGCAUCCUGCATT against 2610207P08Rik	inactive: 0.469
GGUCCAUCGAAGAAGUUCUTT against Cmas	inactive: 0.15
GGGUAGUCACUCAAUAAAUTT against 3110045G13Rik	inactive: 0.79
GCUGGAGUAUUUACUACACTT against Ndufab1	inactive: -1.06
GGAAAGAUGAGCUGUCCUATT against 2010005H15Rik	inactive: -0.491
GGGAUGUUAACCAAGCUUUTT against Cntf	inactive: 0.461
GGUCUCCUUGAGUCUUCCATT against Hes3	inactive: 0.0864
UGCAGUCCAUAUCCUCAUGTT against Olfr645	inactive: -1.18
GCAGGAGUUUAACCUUCCATT against Gmppa	inactive: -1.36
GCAACAAACUGAGCAAAAATT against Slac2b	inactive: 1.3
GCUUUUGCCCGAUGGAUUUTT against Ppap2b	inactive: 0.632
GCCAAUGACCCAAAUUCUATT against B430315C20Rik	inactive: 0.412
GCAACUUAAAGGCAUCUCCTT against A430083B19Rik	inactive: 0.677
GCCAAAUAUUAGCGCGAAGTT against Mglap	inactive: 0.318
GGUGCUGAGUUGGUCUUAUTT against Oatl1	inactive: -1.79
CGCAGGACUAUAAACUGAATT against Ptdss2	inactive: -0.925
GCACCUAAUGAUCACAGUGTT against Nrip3	inactive: 0.48
AUGGGCUGUUUAAAGUCCATT against Gm1313	inactive: 0.00653

In a second layout: entries from further up.
GCAACAAACUGAGCAAAAATT against Slac2b
  z-score: inactive: 1.3
GCUUUUGCCCGAUGGAUUUTT against Ppap2b
  z-score: inactive: 0.632
GCCAAUGACCCAAAUUCUATT against B430315C20Rik
  z-score: inactive: 0.412
GCAACUUAAAGGCAUCUCCTT against A430083B19Rik
  z-score: inactive: 0.677

Quoted at random: 4 entries already listed
Sequence	z-score
CGUACUUCAGCGAUUUAAATT against Sec5l1	inactive: -0.869
CAGUCUACCAGAUCCUUCCTT against H2-Q8	inactive: -1.4
GGAAAGAUGAGCUGUCCUATT against 2010005H15Rik	inactive: -0.491
GCAGGAGUUUAACCUUCCATT against Gmppa	inactive: -1.36

The list goes on.

Sequence	z-score
GGACUGCUGGGAGAACUUUTT against Zcchc3	inactive: -0.897
GGUUGAGGAAACAAGACAUTT against Fbxo42	inactive: -0.234
GGAAGUUUGAGUUUGAGCUTT against Fbxl21	inactive: 0.934
GCAUAACUCCCAUCCAUAGTT against Glra2	inactive: 1.06
GGAUGAUGAGCUGAACUUUTT against Mgrn1	inactive: -1.69
GGUUAACACUAAAUGAAGATT against C330027C09Rik	inactive: -0.898
GGACAGAUUCGACAAAGAGTT against Olfr1365	inactive: 0.914
GGCUCUUGUGGUUUUUGUCTT against Olfr213	inactive: 0.574
GGUGUAUGCAGACAAGUUATT against D2Ertd485e	inactive: -0.363
CCGUUGAUAUCCACAUGAATT against Plod3	inactive: 0.321
CCAAAUGGGAAGAGAUUGUTT against AY534250	inactive: 2.24
GGAAAAAGAGAAAAAUCGCTT against Slc16a2	inactive: 0.233
GUCGAUCAACUCUAGGCUCTT against Rpl30	inactive: 0.407
GGAGACUUUCCAUUUGAAGTT against 2610318I01Rik	inactive: -0.0417
CCUUUCAGGUGCAUAUCCATT against E130309F12Rik	inactive: -1.68
GCGGAGGAGUUUUCUUCGATT against E430021N18Rik	inactive: 0.0566
GCUGUAUCUGUGUCAGAACTT against 1700001O22Rik	inactive: -1.77
GGAUCACCUAACGUAAUGGTT against Phlda1	inactive: 0.415
GCAAAGCUGAUGCGAGCCUTT against Trip3	inactive: 0.192
GGUGCAAUCAAAUGGAAUUTT against Nrf1	inactive: 0.297
GGCAAGAAGUGUGAUGAACTT against 4632411B12Rik	inactive: 0.229
GGAUAAGAAGAUGAGGCAGTT against Mns1	inactive: -1.33
GCCUAUCGAAAAGUCUUGGTT against Adcyap1	inactive: -0.401
GGUUGUCAAUGAAAUGUGCTT against Cpxm2	inactive: 0.306
GCGACAUAACUGCAUUCAATT against Kcnh1	inactive: 0.754
